PubChem BioAssay AID602196 | INSERM, 2012

Test: 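Genes whose knock-down alters cisplatin killing of lung cancer cells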
Cells: human A549 lung cancer cells
Knock-down reagent: siRNA pair against human genes
Time to read-out: 48 h transfection before cisplatin; time from cisplatin to read-out not stated
Challenge: cisplatin at a dose killing half of control-siRNA cells; exact dose and duration not given
Measurement: 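Cisplatin cell death as a shift from the 50% death seen with control siRNA; siRNAs toxic or growth-blocking alone scored 0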
Scale: two-siRNA summed score (-2 to +2): higher = both siRNAs protect from cisplatin killing; -2 means both sensitise; mean protection from cisplatin (shift in death): higher = protection from cisplatin killing
Hit rule: 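siRNAs harmful alone (LDH or WST-1) get 0; others get +1 for less and -1 for more cisplatin killing; genes are active when the two siRNAs give the same sign, summing to ±2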
Meaning of the calls: active = both siRNAs shift cisplatin killing the same way; inactive = no consistent shift, or siRNA harmful alone
This is an unselected part of about 23,000 deposited reagents. Over the whole deposit, 455 (2%) were called active. 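Active includes both protection and sensitisation; some change values fall well beyond the stated -50 to +50 range.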 Unmarked entries are inactive. Further read-outs or replicates are left out here. No sequences are given here. Not given: the amount of reagent.

CIMAP2 | two-siRNA summed score (-2 to +2): 0; mean protection from cisplatin (shift in death) (%): 1.3
CPOX | two-siRNA summed score (-2 to +2): 0; mean protection from cisplatin (shift in death) (%): 9.2
NPEPL1 | two-siRNA summed score (-2 to +2): 0; mean protection from cisplatin (shift in death) (%): -1
KREMEN1 | two-siRNA summed score (-2 to +2): 0; mean protection from cisplatin (shift in death) (%): -1.1
L3HYPDH | two-siRNA summed score (-2 to +2): 0; mean protection from cisplatin (shift in death) (%): -1
KRT35 | two-siRNA summed score (-2 to +2): 1; mean protection from cisplatin (shift in death) (%): 17.1
PCDHB11 | two-siRNA summed score (-2 to +2): 0; mean protection from cisplatin (shift in death) (%): 13.7
MC2R | two-siRNA summed score (-2 to +2): 0; mean protection from cisplatin (shift in death) (%): -11.7
LOC392525 | two-siRNA summed score (-2 to +2): 1; mean protection from cisplatin (shift in death) (%): 16
LOC163233 | two-siRNA summed score (-2 to +2): 0; mean protection from cisplatin (shift in death) (%): 16.4
LOC286423 | two-siRNA summed score (-2 to +2): 0; mean protection from cisplatin (shift in death) (%): 20.5

The list goes on, starting with the last 2 of the part before.
LOC163233 | two-siRNA summed score (-2 to +2): 0; mean protection from cisplatin (shift in death) (%): 16.4
LOC286423 | two-siRNA summed score (-2 to +2): 0; mean protection from cisplatin (shift in death) (%): 20.5
TRAPPC14 | two-siRNA summed score (-2 to +2): 1; mean protection from cisplatin (shift in death) (%): 7.7
DCLK1 | two-siRNA summed score (-2 to +2): 0; mean protection from cisplatin (shift in death) (%): 12.9
CEACAM19 | two-siRNA summed score (-2 to +2): 0; mean protection from cisplatin (shift in death) (%): 1.4
MYF6 | two-siRNA summed score (-2 to +2): -1; mean protection from cisplatin (shift in death) (%): -24.9
KCNQ5 | two-siRNA summed score (-2 to +2): 0; mean protection from cisplatin (shift in death) (%): -9.9
ACOT8 | two-siRNA summed score (-2 to +2): 0; mean protection from cisplatin (shift in death) (%): 4.2
FANCG | two-siRNA summed score (-2 to +2): 1; mean protection from cisplatin (shift in death) (%): 17.6
ZFY | two-siRNA summed score (-2 to +2): 1; mean protection from cisplatin (shift in death) (%): 8.3
BATF2 | two-siRNA summed score (-2 to +2): 0; mean protection from cisplatin (shift in death) (%): 1.7
SACK1E | two-siRNA summed score (-2 to +2): 0; mean protection from cisplatin (shift in death) (%): 1
